This passage reports odorant receptor activation results from the odorant receptor screen of Mainland et al. (2015).

Among the test systems are OR10A2 clone 1171; OR10A3 clone 1416; OR10A4 R262Q clone 1538; OR10A5 clone 1723; OR10A6 clone 1219; OR10A7 clone 1252; OR10AG1 clone 1251.
Holding throughout (assay): odorant receptor activation (CRE luciferase / Renilla) (fold of no-odor wells); higher = more activation
Details in all cases: 100 µM

Experiment [1] concerns OR10A2 H43R/H207R/K258T clone 1498.
Experiment [2] concerns OR10AD1 R166Q/S177N/W198R clone 1524.
In experiment [3] the test system is OR10C1 F60L/P174Q/M246V clone 1366.

Structures are written as SMILES. Several values for one entry are separate records, joined by “and”; a condition that tells them apart may be missing. Equal values may be shown once. Some of the results follow. Single wells; the ratio to wells without odorant was worked out here, and repeats agree poorly.

Regarding `CCOc1cc(C=O)ccc1O` [ethyl vanillin], the odorant receptor activation in [1] is 1.31 and 2.38 and 1.29; with OR10A2 clone 1171, 2.13 and 0.984; with OR10A3 clone 1416, 1.29 and 1.31; in the experiment on OR10A4 R262Q clone 1538, 1.56; in the experiment on OR10A5 clone 1723, 0.836; in the experiment with OR10A6 clone 1219 it was 1.78 and 1.42. Further, the odorant receptor activation in the experiment on OR10A7 clone 1252 is 1.11 and 1.03; in experiment [2], 1.26 and 2.29 and 1.08; in the experiment with OR10AG1 clone 1251, 1.75 and 0.964; in experiment [3], 0.868 and 1.1.

Turning to `CCCCOC(C)=O` [butyl acetate], the odorant receptor activation in experiment [1] was 0.948; in the experiment with OR10A2 clone 1171, 1.08; in the experiment on OR10A3 clone 1416, 0.126; in the experiment with OR10A4 R262Q clone 1538, 1.03; with OR10A5 clone 1723, 0.337; in the experiment on OR10A6 clone 1219, 1.12. The odorant receptor activation is 0.825 with OR10A7 clone 1252, 0.931 in experiment [2], 1.09 in the experiment on OR10AG1 clone 1251 and 0.173 in experiment [3].

Consider `CCC(C)=O` [2-butanone], for which the odorant receptor activation in experiment [1] is 0.926; in the experiment on OR10A2 clone 1171, 0.889; in the experiment with OR10A3 clone 1416 it was 1.05; in the experiment with OR10A4 R262Q clone 1538, 1.07; in the experiment on OR10A5 clone 1723, 0.956; in the experiment with OR10A6 clone 1219, 0.504. For the same compound, the odorant receptor activation was determined as 1.74 in the experiment on OR10A7 clone 1252, 1.12 in [2], 2.08 in the experiment with OR10AG1 clone 1251 and 1.47 in [3].

For `CS` [methanethiol], the odorant receptor activation worked out at 0.922 in [1]; 0.843 with OR10A2 clone 1171; 0.641 in the experiment with OR10A3 clone 1416; 0.912 with OR10A4 R262Q clone 1538; 0.819 in the experiment with OR10A5 clone 1723; 1.02 with OR10A6 clone 1219. In addition, the odorant receptor activation with OR10A7 clone 1252 turned out to be 0.864; in experiment [2] it was 0.899; with OR10AG1 clone 1251, 0.837; in experiment [3] it was 0.849.
